# According to the supplement of paper PMC10032668:
# The chains behind the UniProt entries cited, without tags or fusion partners.
# ASCC3, Q8N3C0, UniProt Q8N3C0, whole entry: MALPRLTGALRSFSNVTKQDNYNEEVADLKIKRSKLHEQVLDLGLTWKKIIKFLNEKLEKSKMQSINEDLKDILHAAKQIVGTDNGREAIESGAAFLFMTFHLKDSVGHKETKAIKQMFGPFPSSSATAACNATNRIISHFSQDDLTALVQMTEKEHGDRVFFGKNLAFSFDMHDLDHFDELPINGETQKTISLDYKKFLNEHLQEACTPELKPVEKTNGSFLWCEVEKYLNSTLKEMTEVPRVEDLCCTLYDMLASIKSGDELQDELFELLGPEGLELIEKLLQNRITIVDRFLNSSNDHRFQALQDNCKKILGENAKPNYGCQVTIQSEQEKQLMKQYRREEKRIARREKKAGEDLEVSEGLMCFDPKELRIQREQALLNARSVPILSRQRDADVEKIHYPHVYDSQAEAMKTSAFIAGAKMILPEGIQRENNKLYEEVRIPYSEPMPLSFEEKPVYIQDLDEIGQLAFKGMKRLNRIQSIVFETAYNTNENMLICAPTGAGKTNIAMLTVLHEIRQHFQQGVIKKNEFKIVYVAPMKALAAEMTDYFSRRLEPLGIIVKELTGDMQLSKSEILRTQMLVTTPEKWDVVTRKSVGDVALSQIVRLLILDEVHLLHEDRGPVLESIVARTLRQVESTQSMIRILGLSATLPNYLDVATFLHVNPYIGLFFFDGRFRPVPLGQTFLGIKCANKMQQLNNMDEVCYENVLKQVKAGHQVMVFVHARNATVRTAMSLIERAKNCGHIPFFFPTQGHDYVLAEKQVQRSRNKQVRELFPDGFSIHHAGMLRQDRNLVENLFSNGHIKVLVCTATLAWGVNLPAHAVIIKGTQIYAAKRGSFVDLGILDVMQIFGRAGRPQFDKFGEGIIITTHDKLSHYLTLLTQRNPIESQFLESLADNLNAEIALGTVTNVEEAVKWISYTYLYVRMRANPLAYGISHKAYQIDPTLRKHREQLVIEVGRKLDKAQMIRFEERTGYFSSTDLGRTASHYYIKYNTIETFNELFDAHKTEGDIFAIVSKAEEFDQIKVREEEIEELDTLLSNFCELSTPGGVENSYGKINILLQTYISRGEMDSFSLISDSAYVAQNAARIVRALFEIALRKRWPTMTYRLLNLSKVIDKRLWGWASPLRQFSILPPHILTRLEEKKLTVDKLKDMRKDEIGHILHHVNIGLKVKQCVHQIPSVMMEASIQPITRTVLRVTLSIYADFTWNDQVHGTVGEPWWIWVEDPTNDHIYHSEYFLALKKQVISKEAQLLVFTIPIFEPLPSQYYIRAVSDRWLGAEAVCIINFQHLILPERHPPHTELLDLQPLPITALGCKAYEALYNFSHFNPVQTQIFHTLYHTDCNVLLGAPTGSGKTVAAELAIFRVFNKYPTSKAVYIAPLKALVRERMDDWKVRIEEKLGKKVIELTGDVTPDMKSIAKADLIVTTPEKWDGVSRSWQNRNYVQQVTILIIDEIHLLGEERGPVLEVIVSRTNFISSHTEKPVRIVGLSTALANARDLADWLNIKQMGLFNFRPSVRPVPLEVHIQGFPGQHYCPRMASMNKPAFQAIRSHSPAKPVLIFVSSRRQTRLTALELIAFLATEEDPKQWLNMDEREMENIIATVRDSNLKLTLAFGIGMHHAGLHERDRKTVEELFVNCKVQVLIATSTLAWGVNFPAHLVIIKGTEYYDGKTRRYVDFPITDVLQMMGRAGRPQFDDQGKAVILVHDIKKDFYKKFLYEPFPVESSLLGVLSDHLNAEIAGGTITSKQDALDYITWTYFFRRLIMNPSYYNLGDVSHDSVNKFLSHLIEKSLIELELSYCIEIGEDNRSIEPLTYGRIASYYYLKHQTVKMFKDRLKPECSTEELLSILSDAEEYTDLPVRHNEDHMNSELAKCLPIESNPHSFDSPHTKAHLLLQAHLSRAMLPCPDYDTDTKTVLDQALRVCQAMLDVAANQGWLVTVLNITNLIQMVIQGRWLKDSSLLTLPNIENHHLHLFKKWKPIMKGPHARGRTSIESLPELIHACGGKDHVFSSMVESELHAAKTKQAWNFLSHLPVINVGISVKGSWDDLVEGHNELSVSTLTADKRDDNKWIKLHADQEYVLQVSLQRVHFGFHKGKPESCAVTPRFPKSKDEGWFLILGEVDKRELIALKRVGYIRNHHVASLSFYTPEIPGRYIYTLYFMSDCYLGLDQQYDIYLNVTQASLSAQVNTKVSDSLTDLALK
# COIL, P38432, UniProt P38432, whole entry: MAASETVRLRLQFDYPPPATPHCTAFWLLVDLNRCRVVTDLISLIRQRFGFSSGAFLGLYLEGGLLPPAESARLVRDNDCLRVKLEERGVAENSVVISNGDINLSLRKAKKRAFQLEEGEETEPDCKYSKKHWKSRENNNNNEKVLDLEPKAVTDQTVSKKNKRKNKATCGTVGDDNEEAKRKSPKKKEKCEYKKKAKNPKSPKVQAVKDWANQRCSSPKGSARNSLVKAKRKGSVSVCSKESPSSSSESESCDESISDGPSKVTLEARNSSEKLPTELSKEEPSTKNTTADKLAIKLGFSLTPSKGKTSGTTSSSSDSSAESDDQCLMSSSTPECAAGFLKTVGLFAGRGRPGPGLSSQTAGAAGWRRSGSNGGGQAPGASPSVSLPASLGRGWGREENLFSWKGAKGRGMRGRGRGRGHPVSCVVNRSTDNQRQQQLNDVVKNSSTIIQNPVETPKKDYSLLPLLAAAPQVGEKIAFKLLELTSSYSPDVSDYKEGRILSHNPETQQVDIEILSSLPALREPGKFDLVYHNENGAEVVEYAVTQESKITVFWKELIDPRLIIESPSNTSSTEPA
# PPP1CA, P62136, UniProt P62136, whole entry: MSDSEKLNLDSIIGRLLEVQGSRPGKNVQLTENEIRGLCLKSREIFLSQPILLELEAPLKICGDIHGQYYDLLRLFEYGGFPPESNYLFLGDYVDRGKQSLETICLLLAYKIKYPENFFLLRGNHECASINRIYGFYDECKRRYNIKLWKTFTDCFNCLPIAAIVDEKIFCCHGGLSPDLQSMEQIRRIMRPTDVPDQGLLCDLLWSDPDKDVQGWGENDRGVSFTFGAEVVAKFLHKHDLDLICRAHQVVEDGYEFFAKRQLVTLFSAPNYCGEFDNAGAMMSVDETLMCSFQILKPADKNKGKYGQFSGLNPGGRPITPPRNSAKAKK
# TPM3, P06753, UniProt P06753, whole entry: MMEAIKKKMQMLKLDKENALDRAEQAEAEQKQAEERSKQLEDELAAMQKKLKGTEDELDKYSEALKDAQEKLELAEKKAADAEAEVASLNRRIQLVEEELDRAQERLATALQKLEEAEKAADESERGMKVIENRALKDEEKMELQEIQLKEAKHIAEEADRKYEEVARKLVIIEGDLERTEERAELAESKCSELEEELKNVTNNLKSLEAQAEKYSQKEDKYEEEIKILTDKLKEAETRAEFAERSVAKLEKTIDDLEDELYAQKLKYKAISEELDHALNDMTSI
# IGF2BP3, O00425, UniProt O00425, whole entry: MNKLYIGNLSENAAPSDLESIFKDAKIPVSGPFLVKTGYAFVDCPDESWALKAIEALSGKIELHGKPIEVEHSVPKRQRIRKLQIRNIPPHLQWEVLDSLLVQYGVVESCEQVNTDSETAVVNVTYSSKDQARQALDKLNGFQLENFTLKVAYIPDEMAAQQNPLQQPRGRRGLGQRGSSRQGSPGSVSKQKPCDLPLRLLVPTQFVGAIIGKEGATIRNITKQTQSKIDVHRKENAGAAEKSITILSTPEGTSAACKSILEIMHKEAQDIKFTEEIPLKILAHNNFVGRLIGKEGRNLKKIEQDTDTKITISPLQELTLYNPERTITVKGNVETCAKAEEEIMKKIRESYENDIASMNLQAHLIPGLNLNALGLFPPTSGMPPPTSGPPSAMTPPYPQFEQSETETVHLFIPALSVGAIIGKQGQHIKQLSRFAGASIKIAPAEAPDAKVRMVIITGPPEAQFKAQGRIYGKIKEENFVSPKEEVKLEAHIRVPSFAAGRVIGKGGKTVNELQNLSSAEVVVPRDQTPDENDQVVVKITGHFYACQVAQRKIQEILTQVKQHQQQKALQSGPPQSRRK
# SNRPG, P62308, UniProt P62308, whole entry: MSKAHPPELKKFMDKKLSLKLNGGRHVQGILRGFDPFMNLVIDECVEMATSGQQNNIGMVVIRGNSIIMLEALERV
# The list shows a part of the results. The list holds hits alone, and they repeat only in part.
# B1: RP3-332B22.1 (peptide)
# chain: MKASHKTRLIQGVEK
# B2: CTC-471J1.11 (peptide)
# chain: LNGKLKSPLGTSVTI
# Tests used:
# Experiment in all cases: PRISMA enrichment of interactor (LFQ) in peptide spot vs all other peptide spots (log2 fold change); higher = stronger / more specific binding of the interactor to the peptide
# ACAD9, Q9H845 = target: ACAD9, Q9H845
# Procedure: (§1)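 PRISMA: 15-aa overlapping tiles (offset 8 aa) of 60 microproteins, plus SOS1/GLUT1 control peptides, were spot-synthesized on cellulose membranes in triplicate. Membranes were incubated with benzonase-treated HEK293T lysate, and bound proteins were identified by LC-MS/MS with LFQ. Enrichment is the log2 fold change of each protein in one spot versus all other spots. Only interactors passing the significance cutoff are listed.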
# ASCC3, Q8N3C0 = target: ASCC3, Q8N3C0
# Procedure: as §1
# AURKA, O14965 = target: AURKA, O14965
# Procedure: as §1
# COIL, P38432 = target: COIL, P38432
# Procedure: as §1
# CPS1, P31327 = target: CPS1, P31327
# Procedure: as §1
# DDX42, Q86XP3 = target: DDX42, Q86XP3
# Procedure: as §1
# FLOT1, O75955 = target: FLOT1, O75955
# Procedure: as §1
# GLRX3, O76003 = target: GLRX3, O76003
# Procedure: as §1
# IDH3A, P50213 = target: IDH3A, P50213
# Procedure: as §1
# MRPL47, Q9HD33 = target: MRPL47, Q9HD33
# Procedure: as §1
# NEPRO, Q6NW34 = target: NEPRO, Q6NW34
# Procedure: as §1
# PFKP, Q01813 = target: PFKP, Q01813
# Procedure: as §1
# PPP1CA, P62136 = target: PPP1CA, P62136
# Procedure: as §1
# PPP1R2, P41236 = target: PPP1R2, P41236
# Procedure: as §1
# PSMC1, P62191 = target: PSMC1, P62191
# Procedure: as §1
# RAB3GAP2, Q9H2M9 = target: RAB3GAP2, Q9H2M9
# Procedure: as §1
# SERPINH1, P50454 = target: SERPINH1, P50454
# Procedure: as §1
# SRPRB, Q9Y5M8 = target: SRPRB, Q9Y5M8
# Procedure: as §1
# TPM3, P06753 = target: TPM3, P06753
# Procedure: as §1
# AHCTF1, Q8WYP5 = target: AHCTF1, Q8WYP5
# Procedure: as §1
# ANKRD17, O75179 = target: ANKRD17, O75179
# Procedure: as §1
# ARL1, P40616 = target: ARL1, P40616
# Procedure: as §1
# ATP5PB, P24539 = target: ATP5PB, P24539
# Procedure: as §1
# CHMP5, Q9NZZ3 = target: CHMP5, Q9NZZ3
# Procedure: as §1
# CRKL, P46109 = target: CRKL, P46109
# Procedure: as §1
# CTBP2, P56545 = target: CTBP2, P56545
# Procedure: as §1
# DHCR24, Q15392 = target: DHCR24, Q15392
# Procedure: as §1
# EBNA1BP2, Q99848 = target: EBNA1BP2, Q99848
# Procedure: as §1
# FAM76B, Q5HYJ3 = target: FAM76B, Q5HYJ3
# Procedure: as §1
# GNAS = target: GNAS
# Procedure: as §1
# GTF2E2, P29084 = target: GTF2E2, P29084
# Procedure: as §1
# HMMR, O75330 = target: HMMR, O75330
# Procedure: as §1
# IGF2BP3, O00425 = target: IGF2BP3, O00425
# Procedure: as §1
# KIF20A, O95235 = target: KIF20A, O95235
# Procedure: as §1
# LLPH, Q9BRT6 = target: LLPH, Q9BRT6
# Procedure: as §1
# MRPL14, Q6P1L8 = target: MRPL14, Q6P1L8
# Procedure: as §1
# MTA1, Q13330 = target: MTA1, Q13330
# Procedure: as §1
# NHP2, Q9NX24 = target: NHP2, Q9NX24
# Procedure: as §1
# NOC2L, Q9Y3T9 = target: NOC2L, Q9Y3T9
# Procedure: as §1
# NSA2, O95478 = target: NSA2, O95478
# Procedure: as §1
# NUP62, P37198 = target: NUP62, P37198
# Procedure: as §1
# POLR2A, P24928 = target: POLR2A, P24928
# Procedure: as §1
# SACS, Q9NZJ4 = target: SACS, Q9NZJ4
# Procedure: as §1
# SNRPG, P62308 = target: SNRPG, P62308
# Procedure: as §1
# TIMM8B, Q9Y5J9 = target: TIMM8B, Q9Y5J9
# Procedure: as §1
# TKT, P29401 = target: TKT, P29401
# Procedure: as §1
binder,measurement,setting,value
B1,PRISMA enrichment of interactor (log2),"ACAD9, Q9H845",8.53
same,PRISMA enrichment of interactor (log2),"ASCC3, Q8N3C0",9.74
same,PRISMA enrichment of interactor (log2),"AURKA, O14965",4.5
same,PRISMA enrichment of interactor (log2),"COIL, P38432",4.56
same,PRISMA enrichment of interactor (log2),"CPS1, P31327",5.2
same,PRISMA enrichment of interactor (log2),"DDX42, Q86XP3",8.23
same,PRISMA enrichment of interactor (log2),"FLOT1, O75955",7.68
same,PRISMA enrichment of interactor (log2),"GLRX3, O76003",4.57
same,PRISMA enrichment of interactor (log2),"IDH3A, P50213",4.76
same,PRISMA enrichment of interactor (log2),"MRPL47, Q9HD33",4.56
same,PRISMA enrichment of interactor (log2),"NEPRO, Q6NW34",4.38
same,PRISMA enrichment of interactor (log2),"PFKP, Q01813",5
same,PRISMA enrichment of interactor (log2),"PPP1CA, P62136",4.94
same,PRISMA enrichment of interactor (log2),"PPP1R2, P41236",4.9
same,PRISMA enrichment of interactor (log2),"PSMC1, P62191",4.91
same,PRISMA enrichment of interactor (log2),"RAB3GAP2, Q9H2M9",4.22
same,PRISMA enrichment of interactor (log2),"SERPINH1, P50454",6.5
same,PRISMA enrichment of interactor (log2),"SRPRB, Q9Y5M8",5.82
same,PRISMA enrichment of interactor (log2),"TPM3, P06753",5.95
B2,PRISMA enrichment of interactor (log2),"ACAD9, Q9H845",4.19
same,PRISMA enrichment of interactor (log2),"AHCTF1, Q8WYP5",7.08
same,PRISMA enrichment of interactor (log2),"ANKRD17, O75179",5.6
same,PRISMA enrichment of interactor (log2),"ARL1, P40616",6.01
same,PRISMA enrichment of interactor (log2),"ATP5PB, P24539",4.66
same,PRISMA enrichment of interactor (log2),"CHMP5, Q9NZZ3",5.16
same,PRISMA enrichment of interactor (log2),"CRKL, P46109",5.25
same,PRISMA enrichment of interactor (log2),"CTBP2, P56545",6.95
same,PRISMA enrichment of interactor (log2),"DDX42, Q86XP3",5.91
same,PRISMA enrichment of interactor (log2),"DHCR24, Q15392",9.12
same,PRISMA enrichment of interactor (log2),"EBNA1BP2, Q99848",4.94
same,PRISMA enrichment of interactor (log2),"FAM76B, Q5HYJ3",4.61
same,PRISMA enrichment of interactor (log2),GNAS,8.72
same,PRISMA enrichment of interactor (log2),"GTF2E2, P29084",6.3
same,PRISMA enrichment of interactor (log2),"HMMR, O75330",5.81
same,PRISMA enrichment of interactor (log2),"IGF2BP3, O00425",7.34
same,PRISMA enrichment of interactor (log2),"KIF20A, O95235",5.34
same,PRISMA enrichment of interactor (log2),"LLPH, Q9BRT6",5.52
same,PRISMA enrichment of interactor (log2),"MRPL14, Q6P1L8",8.05
same,PRISMA enrichment of interactor (log2),"MTA1, Q13330",8.53
same,PRISMA enrichment of interactor (log2),"NHP2, Q9NX24",5.04
same,PRISMA enrichment of interactor (log2),"NOC2L, Q9Y3T9",7.69
same,PRISMA enrichment of interactor (log2),"NSA2, O95478",5.84
same,PRISMA enrichment of interactor (log2),"NUP62, P37198",4.42
same,PRISMA enrichment of interactor (log2),"POLR2A, P24928",5.27
same,PRISMA enrichment of interactor (log2),"PPP1R2, P41236",6.23
same,PRISMA enrichment of interactor (log2),"SACS, Q9NZJ4",6.04
same,PRISMA enrichment of interactor (log2),"SNRPG, P62308",5.47
same,PRISMA enrichment of interactor (log2),"TIMM8B, Q9Y5J9",5.44
same,PRISMA enrichment of interactor (log2),"TKT, P29401",5.29

# Part of the list above, with bars between the fields.
binder | measurement | setting | value
B1 | PRISMA enrichment of interactor (log2) | PSMC1, P62191 | 4.91
same | PRISMA enrichment of interactor (log2) | RAB3GAP2, Q9H2M9 | 4.22
same | PRISMA enrichment of interactor (log2) | SERPINH1, P50454 | 6.5
